Measurements reported in PubChem BioAssay AID1259254 (NCATS, 2017).
This is one part, drawn at random, of about 59,000 reagents. About 1,550 of them (2.6%) were called active. 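G2 share is only a proxy for re-replication; each gene was hit by three separate siRNAs, and active genes were retested.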 Reagents against one gene are numbered here. Further read-outs or replicates are left out here. No sequences are given here. The record does not give: the amount of reagent.

Aim: 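Gene knock-downs that lead to re-replication, shown by excess G2 DNA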 (primary screen)
Cells: human HCT116 colorectal cancer cells
Knock-down reagent: single siRNA against human genes
Timing: 3 days
Read-out: 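Nuclei stained with Hoechst and imaged; cell-cycle phase assigned by DNA content; G2 share scaled per plate, non-targeting siRNA 0%, GMNN siRNA 100%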
Reading the numbers: G2 robust z-score: higher = more G2 cells, more excess DNA replication
Call rule: 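An siRNA counts as active if its G2 robust z-score lies at least 5 MADs above the screen median; here such calls match roughly 38% of GMNN control or more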

G2 robust z-score, by gene and reagent
OSTCP2 (oligosaccharyltransferase complex subunit pseudogene 2): #1 -0.0231 inactive; #2 2.65 inactive; #3 -0.0391 inactive
ARHGEF9 (Cdc42 guanine nucleotide exchange factor 9): #1 2.82 inactive; #2 0.664 inactive; #3 0.675 inactive
GLI4 (GLI family zinc finger 4): #1 1.41 inactive; #2 -0.0692 inactive; #3 -0.645 inactive
TMEM233 (transmembrane protein 233): #1 0.544 inactive; #2 1.97 inactive; #3 0.0792 inactive
TFAP4 (transcription factor AP-4): #1 4.06 inactive; #2 -0.392 inactive; #3 -0.676 inactive
LTBP2 (latent transforming growth factor beta binding protein 2): #1 -0.597 inactive; #2 -0.295 inactive; #3 -0.541 inactive
RASA4 (RAS p21 protein activator 4): #1 0.319 inactive; #2 1.03 inactive; #3 2.37 inactive
CARD10 (caspase recruitment domain family member 10): #1 0.438 inactive; #2 -0.447 inactive; #3 0.919 inactive
NFIX (nuclear factor I X): #1 -0.572 inactive; #2 2.59 inactive; #3 3.65 inactive
ENTPD8 (ectonucleoside triphosphate diphosphohydrolase 8): #1 2.87 inactive; #2 1.15 inactive; #3 0.283 inactive
ADAP1 (ArfGAP with dual PH domains 1): #1 0.128 inactive; #2 -0.111 inactive; #3 -0.995 inactive
STAMBPL1 (STAM binding protein like 1): #1 -0.737 inactive; #2 0.253 inactive; #3 -1.62 inactive
EXOSC9 (exosome component 9): #1 1.09 inactive; #2 7.13 active; #3 1.21 inactive
SYBU (syntabulin): #1 4.75 inactive; #2 -0.394 inactive; #3 -0.504 inactive
SRR (serine racemase): #1 8.2 active; #2 2.53 inactive; #3 -0.528 inactive
OR2T4 (olfactory receptor family 2 subfamily T member 4): #1 -0.826 inactive; #2 -0.131 inactive; #3 0.815 inactive
SAG (S-antigen visual arrestin): #1 -0.0881 inactive; #2 -0.651 inactive; #3 -0.33 inactive
CFAP263 (cilia and flagella associated protein 263): #1 -0.926 inactive; #2 -0.321 inactive; #3 -1.06 inactive
GPR143 (G protein-coupled receptor 143): #1 -0.693 inactive; #2 -0.886 inactive; #3 -0.55 inactive
IQGAP3 (IQ motif containing GTPase activating protein 3): #1 1.49 inactive; #2 -0.592 inactive; #3 -0.512 inactive
ZFP82 (ZFP82 zinc finger protein): #1 -0.443 inactive; #2 0.777 inactive; #3 1.29 inactive
EXOC2 (exocyst complex component 2): #1 0.0937 inactive; #2 0.196 inactive; #3 -0.401 inactive
ZDHHC20 (zDHHC palmitoyltransferase 20): #1 -0.362 inactive; #2 4.17 inactive; #3 -0.705 inactive
